In PMC2789240, “Comparative structural, kinetic and inhibitor studies of Trypanosoma brucei trypanothione reductase with T. cruzi^” (Molecular and Biochemical Parasitology, 2010):
Like-named read-outs stand apart in the source and are kept apart here.

By UniProt entry, the sequences of proteins in these tests, tags left out. Where a name states a change or a piece, a line headed by the entry shows the natural chain unless it says otherwise.
UniProt Q389T8, entry or part of it: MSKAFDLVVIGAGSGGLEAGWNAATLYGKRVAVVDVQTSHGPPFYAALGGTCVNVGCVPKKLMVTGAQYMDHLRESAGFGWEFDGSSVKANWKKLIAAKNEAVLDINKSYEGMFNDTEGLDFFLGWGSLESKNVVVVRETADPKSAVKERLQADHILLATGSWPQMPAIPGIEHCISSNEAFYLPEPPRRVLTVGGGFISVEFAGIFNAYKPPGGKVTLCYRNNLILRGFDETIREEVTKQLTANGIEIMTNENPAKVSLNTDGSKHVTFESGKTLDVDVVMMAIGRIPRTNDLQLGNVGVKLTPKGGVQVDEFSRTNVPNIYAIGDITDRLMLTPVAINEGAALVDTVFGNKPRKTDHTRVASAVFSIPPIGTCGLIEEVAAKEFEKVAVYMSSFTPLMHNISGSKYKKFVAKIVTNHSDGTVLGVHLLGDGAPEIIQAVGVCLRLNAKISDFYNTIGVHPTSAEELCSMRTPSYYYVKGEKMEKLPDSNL
UniProt P28593: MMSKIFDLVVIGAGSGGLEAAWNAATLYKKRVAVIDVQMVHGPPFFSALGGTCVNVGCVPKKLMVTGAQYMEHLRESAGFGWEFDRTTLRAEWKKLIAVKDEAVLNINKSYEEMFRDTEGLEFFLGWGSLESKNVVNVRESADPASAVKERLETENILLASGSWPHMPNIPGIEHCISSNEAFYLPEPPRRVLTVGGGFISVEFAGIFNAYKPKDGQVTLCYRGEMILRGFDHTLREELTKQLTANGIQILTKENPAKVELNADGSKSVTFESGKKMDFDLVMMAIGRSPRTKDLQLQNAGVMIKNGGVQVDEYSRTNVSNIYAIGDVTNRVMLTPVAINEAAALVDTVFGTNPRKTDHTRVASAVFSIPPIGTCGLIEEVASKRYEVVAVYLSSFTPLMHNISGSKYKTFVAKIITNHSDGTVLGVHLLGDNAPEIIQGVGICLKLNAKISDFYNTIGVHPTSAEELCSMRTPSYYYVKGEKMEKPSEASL

What was measured:
[1] = system: Bloodstream form T. b. brucei cells (strain 427, 'single marker'); test: Growth inhibition of bloodstream form T. b. brucei (resazurin); assay type: cell-based; settings: Trypanosoma brucei, 72 h, 3 days incubation, weighted mean of three experiments
Procedure: Bloodstream form T. b. brucei cells (strain 427, ‘single marker’) were grown at 37 °C and 5% CO2 in a modified HMI9 [21] (HMI9-T where 0.2 mM 2-mercaptoethanol was replaced with 0.056 mM thioglycerol). Stock cultures were maintained in T75 vented cap culture flasks (Greiner, Kremsmuenster, Austria) and sub-cultured every 48–72 h by dilution into fresh medium. For microtitre plate assays, cells were counted using a Casy cell counter TT (Schärfe systems) and diluted appropriately. Compounds were tested in 96-well test plates (Greiner). The final conditions were 50–0.07 μM test compound (9-point 3-fold serial dilutions), 0.5% DMSO, 10^3 ml^−1 cells in a total volume of 0.2 ml. Plates were incubated for 3 days, resazurin was added to a final concentration of 45 μM and plates incubated for a further 4 h. Fluorescence was measured at 528 nm excitation and 590 nm emission. EC50 values were determined in three separate experiments and the data reported as weighted means.

[2] = biological target: TbTryR (recombinant T. b. brucei trypanothione reductase) (Trypanosoma brucei brucei, UniProt Q389T8); test: biochemical
[3] = system: Bloodstream form T. b. brucei cells (strain 427, 'single marker'); settings: ref Richardson et al. [33]; cited from earlier work
[4] = biological target: T1, TcTryR (recombinant T. cruzi trypanothione reductase) (Trypanosoma cruzi, UniProt P28593); test: 412 nm DTNB-coupled trypanothione reductase assay (IC50, Km); assay type: biochemical; settings: 412 nm assay, T(S)2 at S = Km (10.4 μM), weighted mean of three occasions
T1 construct: made in house
Procedure: Assay plates were prepared using a Precision2000 liquid handler (Bio-Tek) with a final DMSO concentration of 1% in all wells. Plates contained a 10-point serial dilution (2-fold or 3-fold dilutions) across columns 2–11 with a top concentration of 100 μM or 200 μM. […] Column 1 contained full signal controls (no inhibitor) and column 12 contained background controls (no enzyme). […] Z′ figures were calculated from the full signal and background controls.

SMILES | EC50 [1] | IC50 [2] | Ki ([2]; Ki) | Ki ([2]; calculated Ki from IC50 determination) | EC50 [3] | IC50 [4]
CSc1ccc2c(c1)N(CCC1CCCCN1C)c1ccccc1S2 (stereo not shown) [Thioridazine] | 1.39 ± 0.03 µM | 9.58 ± 0.38 µM | – | – | – | –
CN(C)CCCN1c2ccccc2CCc2ccc(Cl)cc21 [Clomipramine] | – | 11.1 ± 0.42 µM | 3.03 ± 0.28 µM | 5.5 µM | 5.04 µM | 3.41 ± 0.06 µM
